We go through three molecules from article PMC6600216.

Results are given in words; binding and its absence hold for the method and conditions named. In cells and extracts the contact can be indirect. Some binding calls cover weakened binding; strength is not graded here. For some of these results: Where a sequence is shown, tags or fusion partners need not be part of it.

The target in test [1] is T1, IRTKS, endogenous mouse (mouse (endogenous in MEFs, liver and kidney)) (UniProt Q9DBJ3).
T1 sequence: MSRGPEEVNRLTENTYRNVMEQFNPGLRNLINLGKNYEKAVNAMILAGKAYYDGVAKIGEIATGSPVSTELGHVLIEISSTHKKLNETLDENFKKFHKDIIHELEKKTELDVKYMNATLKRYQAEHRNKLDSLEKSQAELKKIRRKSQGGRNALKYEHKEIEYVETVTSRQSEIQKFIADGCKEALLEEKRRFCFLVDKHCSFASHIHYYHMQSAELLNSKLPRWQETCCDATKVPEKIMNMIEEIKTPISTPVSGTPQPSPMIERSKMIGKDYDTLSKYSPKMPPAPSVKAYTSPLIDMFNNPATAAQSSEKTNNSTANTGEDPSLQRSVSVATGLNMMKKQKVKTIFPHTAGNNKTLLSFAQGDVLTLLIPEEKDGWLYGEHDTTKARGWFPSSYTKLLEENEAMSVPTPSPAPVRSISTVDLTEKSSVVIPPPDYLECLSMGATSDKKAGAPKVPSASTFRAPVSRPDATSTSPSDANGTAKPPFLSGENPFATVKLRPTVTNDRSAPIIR
As to the kind of experiment: co-IP; lysates (1 mg total protein) of MEFs, liver and kidney of wild-type and IRTKS-knockout mice; anti-IRTKS or anti-SHIP2 antibody (1 ug) at 4 °C overnight, protein-G beads 4 h; IgG as negative control; immunoblot.

In test [2] the target is T2, IRTKS, endogenous human (human (endogenous in HepG2, SK-Hep-1, Huh7, HEK293T)) (UniProt Q9UHR4).
T2 sequence: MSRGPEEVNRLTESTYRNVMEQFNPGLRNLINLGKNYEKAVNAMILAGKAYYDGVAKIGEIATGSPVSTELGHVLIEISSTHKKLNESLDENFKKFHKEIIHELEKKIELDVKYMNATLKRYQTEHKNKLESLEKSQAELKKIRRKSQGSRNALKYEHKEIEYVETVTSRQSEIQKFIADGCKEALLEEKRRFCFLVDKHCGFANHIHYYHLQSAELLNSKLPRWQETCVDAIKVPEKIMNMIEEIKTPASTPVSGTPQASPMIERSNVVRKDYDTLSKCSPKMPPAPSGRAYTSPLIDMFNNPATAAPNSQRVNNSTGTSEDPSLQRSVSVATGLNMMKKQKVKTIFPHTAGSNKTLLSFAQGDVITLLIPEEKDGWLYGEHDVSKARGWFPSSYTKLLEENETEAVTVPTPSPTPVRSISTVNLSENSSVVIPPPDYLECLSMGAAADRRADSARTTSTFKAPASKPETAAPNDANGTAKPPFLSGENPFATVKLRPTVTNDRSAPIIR
As to the kind of experiment: co-IP; lysates (1 mg total protein) of HepG2, SK-Hep-1 and Huh7 cells, also serum-starved and stimulated with insulin for the indicated times; anti-IRTKS or anti-SHIP2 antibody (1 ug) at 4 °C overnight, protein-G beads 4 h; IgG as negative control; immunoblot.

The target in test [3] is T3, GST-tagged full-length IRTKS (human) (UniProt Q9UHR4).
T3 sequence: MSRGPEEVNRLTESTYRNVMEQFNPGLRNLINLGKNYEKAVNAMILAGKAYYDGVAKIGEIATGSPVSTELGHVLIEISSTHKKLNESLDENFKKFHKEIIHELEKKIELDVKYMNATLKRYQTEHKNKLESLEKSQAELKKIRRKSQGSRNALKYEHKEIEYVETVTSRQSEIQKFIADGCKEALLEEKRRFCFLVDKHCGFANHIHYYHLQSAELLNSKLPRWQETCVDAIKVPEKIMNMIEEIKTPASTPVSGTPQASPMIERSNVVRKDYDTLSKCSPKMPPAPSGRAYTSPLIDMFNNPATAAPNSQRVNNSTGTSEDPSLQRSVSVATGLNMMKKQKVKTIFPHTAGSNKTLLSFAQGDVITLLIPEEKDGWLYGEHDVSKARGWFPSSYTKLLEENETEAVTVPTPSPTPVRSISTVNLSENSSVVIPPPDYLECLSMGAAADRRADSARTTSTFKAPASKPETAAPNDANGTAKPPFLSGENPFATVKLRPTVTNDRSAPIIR
Briefly: pull-down; GST-tagged IRTKS fusion proteins bound to glutathione-sepharose beads, incubated with HEK293T cell lysate overnight at 4 °C; washed four times with lysis buffer; Western blot for endogenous SHIP2; only the target purified.

Test [4] deals with T4, SHIP2, endogenous mouse (mouse (endogenous in MEFs, liver and kidney)) (UniProt Q6P549).
T4 sequence: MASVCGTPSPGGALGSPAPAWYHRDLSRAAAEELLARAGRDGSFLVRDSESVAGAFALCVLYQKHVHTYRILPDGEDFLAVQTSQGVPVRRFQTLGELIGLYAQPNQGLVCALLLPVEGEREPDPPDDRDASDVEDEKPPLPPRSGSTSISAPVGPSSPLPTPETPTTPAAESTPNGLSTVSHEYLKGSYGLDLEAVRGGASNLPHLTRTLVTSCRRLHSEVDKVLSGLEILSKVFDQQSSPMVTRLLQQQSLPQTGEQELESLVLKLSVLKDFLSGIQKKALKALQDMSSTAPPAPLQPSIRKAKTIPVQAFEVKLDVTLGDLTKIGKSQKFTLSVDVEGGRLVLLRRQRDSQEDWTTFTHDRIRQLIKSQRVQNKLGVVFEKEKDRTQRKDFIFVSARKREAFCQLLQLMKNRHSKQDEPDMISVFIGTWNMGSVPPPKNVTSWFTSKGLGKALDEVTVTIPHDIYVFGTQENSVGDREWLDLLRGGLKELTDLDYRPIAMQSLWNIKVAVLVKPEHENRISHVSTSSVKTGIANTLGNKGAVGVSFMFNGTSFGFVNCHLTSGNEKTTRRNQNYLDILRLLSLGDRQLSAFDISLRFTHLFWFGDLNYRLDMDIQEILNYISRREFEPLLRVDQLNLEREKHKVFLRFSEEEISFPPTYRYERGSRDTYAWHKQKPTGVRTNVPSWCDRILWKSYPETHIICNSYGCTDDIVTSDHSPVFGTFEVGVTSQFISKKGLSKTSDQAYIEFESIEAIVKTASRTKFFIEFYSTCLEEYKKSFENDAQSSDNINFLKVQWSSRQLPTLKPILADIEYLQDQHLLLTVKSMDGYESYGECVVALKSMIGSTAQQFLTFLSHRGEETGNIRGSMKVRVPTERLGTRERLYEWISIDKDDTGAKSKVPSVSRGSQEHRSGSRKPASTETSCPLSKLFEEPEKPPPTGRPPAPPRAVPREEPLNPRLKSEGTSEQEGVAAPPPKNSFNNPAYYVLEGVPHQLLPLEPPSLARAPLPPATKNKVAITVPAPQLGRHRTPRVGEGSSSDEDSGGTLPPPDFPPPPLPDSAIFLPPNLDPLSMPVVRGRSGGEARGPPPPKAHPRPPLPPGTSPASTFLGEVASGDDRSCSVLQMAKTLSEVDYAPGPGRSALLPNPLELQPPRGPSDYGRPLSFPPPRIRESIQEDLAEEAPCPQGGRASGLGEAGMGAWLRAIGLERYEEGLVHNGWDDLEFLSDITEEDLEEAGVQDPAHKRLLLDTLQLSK
As to the kind of experiment: co-IP; lysates (1 mg total protein) of MEFs, liver and kidney of wild-type and IRTKS-knockout mice; anti-IRTKS or anti-SHIP2 antibody (1 ug) at 4 °C overnight, protein-G beads 4 h; IgG as negative control; immunoblot.

B1: SHIP2, endogenous mouse (enzyme, UniProt Q6P549 1-1257)
chain: MASVCGTPSPGGALGSPAPAWYHRDLSRAAAEELLARAGRDGSFLVRDSESVAGAFALCVLYQKHVHTYRILPDGEDFLAVQTSQGVPVRRFQTLGELIGLYAQPNQGLVCALLLPVEGEREPDPPDDRDASDVEDEKPPLPPRSGSTSISAPVGPSSPLPTPETPTTPAAESTPNGLSTVSHEYLKGSYGLDLEAVRGGASNLPHLTRTLVTSCRRLHSEVDKVLSGLEILSKVFDQQSSPMVTRLLQQQSLPQTGEQELESLVLKLSVLKDFLSGIQKKALKALQDMSSTAPPAPLQPSIRKAKTIPVQAFEVKLDVTLGDLTKIGKSQKFTLSVDVEGGRLVLLRRQRDSQEDWTTFTHDRIRQLIKSQRVQNKLGVVFEKEKDRTQRKDFIFVSARKREAFCQLLQLMKNRHSKQDEPDMISVFIGTWNMGSVPPPKNVTSWFTSKGLGKALDEVTVTIPHDIYVFGTQENSVGDREWLDLLRGGLKELTDLDYRPIAMQSLWNIKVAVLVKPEHENRISHVSTSSVKTGIANTLGNKGAVGVSFMFNGTSFGFVNCHLTSGNEKTTRRNQNYLDILRLLSLGDRQLSAFDISLRFTHLFWFGDLNYRLDMDIQEILNYISRREFEPLLRVDQLNLEREKHKVFLRFSEEEISFPPTYRYERGSRDTYAWHKQKPTGVRTNVPSWCDRILWKSYPETHIICNSYGCTDDIVTSDHSPVFGTFEVGVTSQFISKKGLSKTSDQAYIEFESIEAIVKTASRTKFFIEFYSTCLEEYKKSFENDAQSSDNINFLKVQWSSRQLPTLKPILADIEYLQDQHLLLTVKSMDGYESYGECVVALKSMIGSTAQQFLTFLSHRGEETGNIRGSMKVRVPTERLGTRERLYEWISIDKDDTGAKSKVPSVSRGSQEHRSGSRKPASTETSCPLSKLFEEPEKPPPTGRPPAPPRAVPREEPLNPRLKSEGTSEQEGVAAPPPKNSFNNPAYYVLEGVPHQLLPLEPPSLARAPLPPATKNKVAITVPAPQLGRHRTPRVGEGSSSDEDSGGTLPPPDFPPPPLPDSAIFLPPNLDPLSMPVVRGRSGGEARGPPPPKAHPRPPLPPGTSPASTFLGEVASGDDRSCSVLQMAKTLSEVDYAPGPGRSALLPNPLELQPPRGPSDYGRPLSFPPPRIRESIQEDLAEEAPCPQGGRASGLGEAGMGAWLRAIGLERYEEGLVHNGWDDLEFLSDITEEDLEEAGVQDPAHKRLLLDTLQLSK
For B1, in test [1], the binding result is recorded as “binds”.

B2: SHIP2, endogenous human (enzyme, UniProt O15357 1-1258)
chain: MASACGAPGPGGALGSQAPSWYHRDLSRAAAEELLARAGRDGSFLVRDSESVAGAFALCVLYQKHVHTYRILPDGEDFLAVQTSQGVPVRRFQTLGELIGLYAQPNQGLVCALLLPVEGEREPDPPDDRDASDGEDEKPPLPPRSGSTSISAPTGPSSPLPAPETPTAPAAESAPNGLSTVSHDYLKGSYGLDLEAVRGGASHLPHLTRTLATSCRRLHSEVDKVLSGLEILSKVFDQQSSPMVTRLLQQQNLPQTGEQELESLVLKLSVLKDFLSGIQKKALKALQDMSSTAPPAPQPSTRKAKTIPVQAFEVKLDVTLGDLTKIGKSQKFTLSVDVEGGRLVLLRRQRDSQEDWTTFTHDRIRQLIKSQRVQNKLGVVFEKEKDRTQRKDFIFVSARKREAFCQLLQLMKNKHSKQDEPDMISVFIGTWNMGSVPPPKNVTSWFTSKGLGKTLDEVTVTIPHDIYVFGTQENSVGDREWLDLLRGGLKELTDLDYRPIAMQSLWNIKVAVLVKPEHENRISHVSTSSVKTGIANTLGNKGAVGVSFMFNGTSFGFVNCHLTSGNEKTARRNQNYLDILRLLSLGDRQLNAFDISLRFTHLFWFGDLNYRLDMDIQEILNYISRKEFEPLLRVDQLNLEREKHKVFLRFSEEEISFPPTYRYERGSRDTYAWHKQKPTGVRTNVPSWCDRILWKSYPETHIICNSYGCTDDIVTSDHSPVFGTFEVGVTSQFISKKGLSKTSDQAYIEFESIEAIVKTASRTKFFIEFYSTCLEEYKKSFENDAQSSDNINFLKVQWSSRQLPTLKPILADIEYLQDQHLLLTVKSMDGYESYGECVVALKSMIGSTAQQFLTFLSHRGEETGNIRGSMKVRVPTERLGTRERLYEWISIDKDEAGAKSKAPSVSRGSQEPRSGSRKPAFTEASCPLSRLFEEPEKPPPTGRPPAPPRAAPREEPLTPRLKPEGAPEPEGVAAPPPKNSFNNPAYYVLEGVPHQLLPPEPPSPARAPVPSATKNKVAITVPAPQLGHHRHPRVGEGSSSDEESGGTLPPPDFPPPPLPDSAIFLPPSLDPLPGPVVRGRGGAEARGPPPPKAHPRPPLPPGPSPASTFLGEVASGDDRSCSVLQMAKTLSEVDYAPAGPARSALLPGPLELQPPRGLPSDYGRPLSFPPPRIRESIQEDLAEEAPCLQGGRASGLGEAGMSAWLRAIGLERYEEGLVHNGWDDLEFLSDITEEDLEEAGVQDPAHKRLLLDTLQLSK
Take B2: the binding entry in test [2] and in test [3] was “binds” throughout.

B3: IRTKS, endogenous mouse (protein, UniProt Q9DBJ3 1-514)
chain: MSRGPEEVNRLTENTYRNVMEQFNPGLRNLINLGKNYEKAVNAMILAGKAYYDGVAKIGEIATGSPVSTELGHVLIEISSTHKKLNETLDENFKKFHKDIIHELEKKTELDVKYMNATLKRYQAEHRNKLDSLEKSQAELKKIRRKSQGGRNALKYEHKEIEYVETVTSRQSEIQKFIADGCKEALLEEKRRFCFLVDKHCSFASHIHYYHMQSAELLNSKLPRWQETCCDATKVPEKIMNMIEEIKTPISTPVSGTPQPSPMIERSKMIGKDYDTLSKYSPKMPPAPSVKAYTSPLIDMFNNPATAAQSSEKTNNSTANTGEDPSLQRSVSVATGLNMMKKQKVKTIFPHTAGNNKTLLSFAQGDVLTLLIPEEKDGWLYGEHDTTKARGWFPSSYTKLLEENEAMSVPTPSPAPVRSISTVDLTEKSSVVIPPPDYLECLSMGATSDKKAGAPKVPSASTFRAPVSRPDATSTSPSDANGTAKPPFLSGENPFATVKLRPTVTNDRSAPIIR
As for B3, in test [4], the binding entry was “binds”.
